The shares of active, inactive and inconclusive entries below differ from those in the screen. Potencies beside an inconclusive call are fits to weak or partial responses and may not hold up. The source made the active and inactive calls. Calls follow the shape of the dose curve; as a rule, active = well fitted inhibition curve with a large enough effect; inconclusive = small, poorly fitted or top-dose-only effect; inactive = no such curve, though single readings can be large or run the other way.
Assay: qHTS Assay for Inhibitors of Hepatitis C Virus (HCV): Cytotoxicity Counterscreen for Cherry-picked Compounds
Conditions: HCV host cell line cytotoxicity counterscreen; activity change, negative = cytotoxicity: at 41.8 µM (top of the series)
Procedure, shortened: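 Read-out: CellTiter-Glo luminescence, 15 min RT development. Huh cell line, 1,000 cells/well, compound added after 4 h pre-culture, then 44 h exposure at 37C/5% CO2.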
% is scaled to controls: 0 for no effect and ±100 for the full control effect; potency is read from the fitted curve at half-maximal effect.
Also: nearly all actives have a fitted effect of over 55% in size.

Structure (SMILES)	Potency	activity change, negative = cytotoxicity
Cc1onc(-c2ccccc2Cl)c1C(=O)Nc1ccccc1C(=O)NC(C)C	inconclusive: 28 µM [inhibitor, partial curve]	
COc1ccc(/C=N\NC(=O)c2ccccc2[N+](=O)[O-])cc1COc1c(F)c(F)c(F)c(F)c1F		inactive: -20.4%
Cc1cc(S(=O)(=O)Nc2ccc3ccccc3c2)c(C)s1	inconclusive: 12.5 µM [inhibitor, partial curve]	
CC(C)Oc1ccccc1/C=N/NC(=O)c1ccc(F)cc1		inactive: -9.94%
CCc1ccc(C(CNC(=O)c2ccc3c(=O)n(-c4ccccc4F)c(=S)[nH]c3c2)N(C)C)cc1 (stereo unspecified)	active: 31.5 µM	
COc1ccc(S(=O)(=O)N(C)C)cc1NC(=O)C1CCN(c2ncnc3sc(C)c(C)c23)CC1	inconclusive: 31.5 µM [inhibitor, partial curve, poor fit]	
Cc1cc(C(=O)CSc2nnc(-c3ccco3)o2)c(C)n1Cc1ccco1	inconclusive: 31.5 µM [inhibitor, partial curve, poor fit]	
CCOc1cc(NC(=S)NCC2CCCO2)c(OCC)cc1NC(=O)c1ccccc1 (stereo unspecified)		inactive: 31.8%
CCN1CCN(CCCOc2ccc(-c3ccccc3)cc2)CC1		inactive: -19.1%
CCOc1ccccc1C(=O)Nc1ccc2nc(N3CCN(c4ncccn4)CC3)cc(C)c2c1		inactive: -79.3%
CC(C)=CCC/C(C)=C/CNC(=O)C[C@H]1C[C@H](C(=O)N2CCCCC2)[C@@]2(C)c3[nH]c4cc(CCC(=O)N(C)C)ccc4c3CCN2C1=O	inconclusive: 11.2 µM [inhibitor, partial curve, poor fit]	
C/C(=N\NC(=O)C1COc2ccccc2O1)c1ccccn1 (stereo unspecified)	inconclusive: 7.05 µM [inhibitor, full curve, poor fit]	
COCCn1c(=O)[nH]c2cc(C(=O)N3CCN(c4ccc(Cl)cc4)CC3)ccc2c1=O	inconclusive: 15.8 µM [inhibitor, partial curve, poor fit]	
Cc1cccc(Cn2c(O)c(N=NC(=S)Nc3ccccc3F)c3ccccc32)c1	inconclusive: 9.95 µM [inhibitor, single point]	
COc1ccc(CNC(=O)c2ccc3c(=O)n4c(nc3c2)CCCCC4)cc1OC	inconclusive: 28 µM [inhibitor, partial curve, poor fit]	
Cc1c(C(=O)Nc2cccc([N+](=O)[O-])c2)csc1-c1ccccc1	inconclusive: 12.5 µM [inhibitor, partial curve, poor fit]	
Clc1ccc2c(NCc3ccccc3)ccnc2c1	inconclusive: 14.1 µM [inhibitor, partial curve, poor fit]	
Cn1nc(C(F)(F)F)c2cc(NC(=O)OCc3ccc(C(C)(C)C)cc3)sc21	inconclusive: 0.0007 µM [inhibitor, full curve, poor fit]	
CCOc1ccc(CCNC(=O)c2cc3sccc3n2C)cc1OCC	inconclusive: 14.1 µM [inhibitor, partial curve, poor fit]	
CC(C)(C)c1cc[n+](C2=C([O-])c3ccccc3C(=O)/C2=N\S(=O)(=O)c2cccs2)cc1	inconclusive: 28 µM [inhibitor, single point]	
COc1ccc2oc(=O)c(-c3nnc(NCc4ccco4)s3)cc2c1	inconclusive: 31.5 µM [inhibitor, single point]	

Taken from above.
In Potency, Cc1onc(-c2ccccc2Cl)c1C(=O)Nc1ccccc1C(=O)NC(C)C has inconclusive: 28 µM [inhibitor, partial curve]
In Potency, Cn1nc(C(F)(F)F)c2cc(NC(=O)OCc3ccc(C(C)(C)C)cc3)sc21 has inconclusive: 0.0007 µM [inhibitor, full curve, poor fit]
